In the supplement of paper PMC10849652:
Some of the results follow.

Protein sequences, listed by entry. Tags and fused reporters are not part of them. Lines headed by an entry give the natural chain unless they say otherwise; changes in a name come on top.
UniProt Q8TF40: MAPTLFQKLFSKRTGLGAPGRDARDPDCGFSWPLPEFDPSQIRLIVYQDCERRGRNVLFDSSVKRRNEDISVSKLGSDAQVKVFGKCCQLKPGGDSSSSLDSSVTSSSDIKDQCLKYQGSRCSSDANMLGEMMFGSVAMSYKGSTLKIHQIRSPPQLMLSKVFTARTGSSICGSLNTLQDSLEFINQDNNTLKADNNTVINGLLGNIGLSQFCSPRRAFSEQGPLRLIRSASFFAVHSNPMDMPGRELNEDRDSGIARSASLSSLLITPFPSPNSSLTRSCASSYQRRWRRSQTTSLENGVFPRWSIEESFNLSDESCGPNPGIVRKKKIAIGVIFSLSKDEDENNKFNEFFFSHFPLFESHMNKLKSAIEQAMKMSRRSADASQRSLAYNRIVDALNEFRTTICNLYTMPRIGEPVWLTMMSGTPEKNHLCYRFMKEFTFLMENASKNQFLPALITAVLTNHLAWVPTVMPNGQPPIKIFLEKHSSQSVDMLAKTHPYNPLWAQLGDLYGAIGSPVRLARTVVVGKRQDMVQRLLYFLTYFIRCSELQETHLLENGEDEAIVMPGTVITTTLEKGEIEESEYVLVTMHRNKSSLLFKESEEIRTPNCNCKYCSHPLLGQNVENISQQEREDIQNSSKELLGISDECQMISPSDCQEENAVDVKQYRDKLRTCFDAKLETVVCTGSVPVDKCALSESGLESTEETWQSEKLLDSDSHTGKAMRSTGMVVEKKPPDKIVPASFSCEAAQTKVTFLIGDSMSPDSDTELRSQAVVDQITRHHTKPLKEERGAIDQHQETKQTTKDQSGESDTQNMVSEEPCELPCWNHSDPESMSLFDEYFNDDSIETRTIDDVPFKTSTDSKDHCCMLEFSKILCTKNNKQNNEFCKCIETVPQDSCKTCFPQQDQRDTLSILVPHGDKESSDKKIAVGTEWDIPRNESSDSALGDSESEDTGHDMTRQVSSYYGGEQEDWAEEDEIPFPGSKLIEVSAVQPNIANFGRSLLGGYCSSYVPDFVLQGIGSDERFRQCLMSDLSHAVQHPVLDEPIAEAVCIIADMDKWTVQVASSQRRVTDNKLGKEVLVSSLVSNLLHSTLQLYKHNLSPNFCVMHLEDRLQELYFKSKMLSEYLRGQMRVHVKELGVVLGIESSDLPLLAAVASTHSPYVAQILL
UniProt Q13451: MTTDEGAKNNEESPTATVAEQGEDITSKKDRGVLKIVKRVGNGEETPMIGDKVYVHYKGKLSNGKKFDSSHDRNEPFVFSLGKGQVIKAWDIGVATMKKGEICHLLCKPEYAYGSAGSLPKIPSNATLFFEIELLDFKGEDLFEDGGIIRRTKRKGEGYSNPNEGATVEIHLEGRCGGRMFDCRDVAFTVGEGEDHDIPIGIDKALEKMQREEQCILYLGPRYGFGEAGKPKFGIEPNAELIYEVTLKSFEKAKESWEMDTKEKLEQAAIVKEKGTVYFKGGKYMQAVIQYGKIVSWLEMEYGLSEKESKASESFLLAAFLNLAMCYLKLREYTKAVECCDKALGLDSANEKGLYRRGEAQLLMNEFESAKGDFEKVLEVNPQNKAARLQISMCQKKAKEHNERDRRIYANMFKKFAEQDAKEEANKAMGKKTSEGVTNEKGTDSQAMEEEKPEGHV
UniProt Q00688: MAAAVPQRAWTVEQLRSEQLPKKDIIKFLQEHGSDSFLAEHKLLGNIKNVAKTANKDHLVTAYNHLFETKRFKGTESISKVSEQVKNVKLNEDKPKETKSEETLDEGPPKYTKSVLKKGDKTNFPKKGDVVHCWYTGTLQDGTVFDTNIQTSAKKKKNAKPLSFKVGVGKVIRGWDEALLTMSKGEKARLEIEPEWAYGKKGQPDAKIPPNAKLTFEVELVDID
UniProt Q9UHY8: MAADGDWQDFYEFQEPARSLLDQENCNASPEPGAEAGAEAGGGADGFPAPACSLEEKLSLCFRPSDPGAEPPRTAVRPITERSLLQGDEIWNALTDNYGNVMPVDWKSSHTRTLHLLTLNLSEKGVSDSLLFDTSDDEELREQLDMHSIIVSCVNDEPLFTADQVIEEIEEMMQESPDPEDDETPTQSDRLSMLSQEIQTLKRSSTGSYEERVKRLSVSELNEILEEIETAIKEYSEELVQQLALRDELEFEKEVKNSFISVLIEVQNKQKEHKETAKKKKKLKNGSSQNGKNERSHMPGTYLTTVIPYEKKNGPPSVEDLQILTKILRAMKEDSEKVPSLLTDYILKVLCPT
UniProt Q6P3S6: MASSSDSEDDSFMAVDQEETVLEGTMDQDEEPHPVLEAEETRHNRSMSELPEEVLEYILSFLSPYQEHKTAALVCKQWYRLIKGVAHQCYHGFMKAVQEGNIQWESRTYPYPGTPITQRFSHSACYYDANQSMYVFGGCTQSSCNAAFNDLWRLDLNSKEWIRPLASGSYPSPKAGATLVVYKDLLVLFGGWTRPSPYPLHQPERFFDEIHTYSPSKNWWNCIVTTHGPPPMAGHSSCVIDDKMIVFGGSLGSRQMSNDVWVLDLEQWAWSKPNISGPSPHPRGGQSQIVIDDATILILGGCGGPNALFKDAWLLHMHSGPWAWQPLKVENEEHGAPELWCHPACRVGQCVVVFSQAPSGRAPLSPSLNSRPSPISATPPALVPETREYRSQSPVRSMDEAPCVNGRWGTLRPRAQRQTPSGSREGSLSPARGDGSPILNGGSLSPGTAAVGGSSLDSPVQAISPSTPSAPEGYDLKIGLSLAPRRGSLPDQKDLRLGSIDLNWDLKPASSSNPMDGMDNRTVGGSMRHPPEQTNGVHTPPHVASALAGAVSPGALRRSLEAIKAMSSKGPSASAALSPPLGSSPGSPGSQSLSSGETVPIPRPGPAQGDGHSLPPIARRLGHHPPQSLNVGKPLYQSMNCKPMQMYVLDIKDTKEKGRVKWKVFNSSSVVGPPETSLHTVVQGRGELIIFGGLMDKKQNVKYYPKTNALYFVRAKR
UniProt Q9Y5Y0: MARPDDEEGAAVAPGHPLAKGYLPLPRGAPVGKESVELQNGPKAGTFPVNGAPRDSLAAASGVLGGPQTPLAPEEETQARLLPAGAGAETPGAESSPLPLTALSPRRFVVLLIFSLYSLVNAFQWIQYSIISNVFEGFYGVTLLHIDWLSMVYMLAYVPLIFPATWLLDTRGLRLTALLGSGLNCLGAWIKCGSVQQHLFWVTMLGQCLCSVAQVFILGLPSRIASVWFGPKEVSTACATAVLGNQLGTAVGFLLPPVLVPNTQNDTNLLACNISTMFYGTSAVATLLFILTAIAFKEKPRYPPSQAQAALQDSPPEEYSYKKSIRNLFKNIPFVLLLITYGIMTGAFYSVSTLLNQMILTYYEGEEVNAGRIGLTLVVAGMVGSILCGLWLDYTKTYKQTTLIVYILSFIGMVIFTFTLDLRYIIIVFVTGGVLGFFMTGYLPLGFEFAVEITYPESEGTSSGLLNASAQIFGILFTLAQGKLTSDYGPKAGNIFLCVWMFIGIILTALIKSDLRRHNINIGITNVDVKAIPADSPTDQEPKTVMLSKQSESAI
UniProt Q9UKT5: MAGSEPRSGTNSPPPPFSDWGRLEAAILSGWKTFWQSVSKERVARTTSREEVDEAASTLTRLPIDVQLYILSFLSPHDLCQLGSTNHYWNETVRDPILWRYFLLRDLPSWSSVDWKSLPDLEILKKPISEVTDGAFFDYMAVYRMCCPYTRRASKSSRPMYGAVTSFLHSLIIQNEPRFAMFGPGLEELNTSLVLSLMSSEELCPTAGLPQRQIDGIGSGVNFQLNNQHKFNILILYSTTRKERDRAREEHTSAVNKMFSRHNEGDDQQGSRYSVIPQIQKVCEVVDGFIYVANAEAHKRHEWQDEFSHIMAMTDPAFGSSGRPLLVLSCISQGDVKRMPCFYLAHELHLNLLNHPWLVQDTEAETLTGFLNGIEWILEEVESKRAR
UniProt O43427: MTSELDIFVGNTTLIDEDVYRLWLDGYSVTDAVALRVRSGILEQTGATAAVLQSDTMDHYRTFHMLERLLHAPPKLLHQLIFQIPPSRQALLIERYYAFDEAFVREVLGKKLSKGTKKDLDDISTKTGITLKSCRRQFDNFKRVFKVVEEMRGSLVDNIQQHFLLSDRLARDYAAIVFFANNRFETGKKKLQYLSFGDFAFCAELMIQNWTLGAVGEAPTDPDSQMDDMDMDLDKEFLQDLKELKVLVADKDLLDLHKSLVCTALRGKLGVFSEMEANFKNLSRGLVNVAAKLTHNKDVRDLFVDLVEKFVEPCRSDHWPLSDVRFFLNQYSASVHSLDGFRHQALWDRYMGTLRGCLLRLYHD
UniProt A6NHQ2: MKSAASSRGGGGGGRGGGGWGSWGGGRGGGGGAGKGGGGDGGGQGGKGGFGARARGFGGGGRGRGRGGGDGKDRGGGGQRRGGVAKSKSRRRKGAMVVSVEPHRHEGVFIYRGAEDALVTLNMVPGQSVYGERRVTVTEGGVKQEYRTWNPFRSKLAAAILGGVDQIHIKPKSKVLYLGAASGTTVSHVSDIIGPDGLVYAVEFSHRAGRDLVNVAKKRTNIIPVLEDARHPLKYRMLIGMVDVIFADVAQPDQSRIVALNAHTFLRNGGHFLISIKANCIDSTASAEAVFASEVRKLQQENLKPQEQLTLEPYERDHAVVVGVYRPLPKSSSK
UniProt P10109: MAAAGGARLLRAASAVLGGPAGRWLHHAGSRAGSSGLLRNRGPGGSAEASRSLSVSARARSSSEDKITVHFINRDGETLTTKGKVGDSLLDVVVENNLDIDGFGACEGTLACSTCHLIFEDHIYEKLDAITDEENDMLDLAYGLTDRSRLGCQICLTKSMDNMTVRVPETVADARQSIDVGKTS
UniProt Q92562: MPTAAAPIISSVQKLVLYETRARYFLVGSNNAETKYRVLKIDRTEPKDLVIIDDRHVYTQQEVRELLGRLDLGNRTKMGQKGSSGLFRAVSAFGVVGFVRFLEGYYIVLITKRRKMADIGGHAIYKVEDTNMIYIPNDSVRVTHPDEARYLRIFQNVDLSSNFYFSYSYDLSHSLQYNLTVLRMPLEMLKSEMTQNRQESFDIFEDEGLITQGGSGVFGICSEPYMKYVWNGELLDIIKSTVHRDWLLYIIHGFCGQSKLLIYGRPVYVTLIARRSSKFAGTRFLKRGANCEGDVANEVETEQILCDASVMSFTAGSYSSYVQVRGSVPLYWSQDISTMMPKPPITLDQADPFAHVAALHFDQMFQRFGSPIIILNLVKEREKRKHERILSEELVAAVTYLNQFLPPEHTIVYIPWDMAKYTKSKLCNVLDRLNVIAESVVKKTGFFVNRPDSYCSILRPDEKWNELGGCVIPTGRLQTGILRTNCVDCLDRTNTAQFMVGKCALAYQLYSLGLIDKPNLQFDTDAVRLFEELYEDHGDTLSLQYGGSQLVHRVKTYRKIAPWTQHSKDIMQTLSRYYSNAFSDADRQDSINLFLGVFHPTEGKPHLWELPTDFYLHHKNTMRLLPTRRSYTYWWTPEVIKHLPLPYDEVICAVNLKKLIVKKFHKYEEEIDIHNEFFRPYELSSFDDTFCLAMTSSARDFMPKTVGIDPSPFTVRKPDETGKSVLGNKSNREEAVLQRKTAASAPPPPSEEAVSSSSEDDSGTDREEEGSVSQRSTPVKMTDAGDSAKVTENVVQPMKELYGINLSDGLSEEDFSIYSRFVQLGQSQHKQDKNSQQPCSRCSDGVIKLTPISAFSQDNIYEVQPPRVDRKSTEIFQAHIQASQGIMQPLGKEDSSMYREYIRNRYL
UniProt Q9NRD1: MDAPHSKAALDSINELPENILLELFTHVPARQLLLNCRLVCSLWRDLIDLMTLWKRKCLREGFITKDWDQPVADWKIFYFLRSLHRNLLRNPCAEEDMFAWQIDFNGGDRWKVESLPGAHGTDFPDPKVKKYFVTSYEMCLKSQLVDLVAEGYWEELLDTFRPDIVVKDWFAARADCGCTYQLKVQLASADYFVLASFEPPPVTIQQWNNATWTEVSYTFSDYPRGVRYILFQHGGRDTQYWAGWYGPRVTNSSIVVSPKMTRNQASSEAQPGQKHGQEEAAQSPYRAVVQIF
UniProt Q6UN15: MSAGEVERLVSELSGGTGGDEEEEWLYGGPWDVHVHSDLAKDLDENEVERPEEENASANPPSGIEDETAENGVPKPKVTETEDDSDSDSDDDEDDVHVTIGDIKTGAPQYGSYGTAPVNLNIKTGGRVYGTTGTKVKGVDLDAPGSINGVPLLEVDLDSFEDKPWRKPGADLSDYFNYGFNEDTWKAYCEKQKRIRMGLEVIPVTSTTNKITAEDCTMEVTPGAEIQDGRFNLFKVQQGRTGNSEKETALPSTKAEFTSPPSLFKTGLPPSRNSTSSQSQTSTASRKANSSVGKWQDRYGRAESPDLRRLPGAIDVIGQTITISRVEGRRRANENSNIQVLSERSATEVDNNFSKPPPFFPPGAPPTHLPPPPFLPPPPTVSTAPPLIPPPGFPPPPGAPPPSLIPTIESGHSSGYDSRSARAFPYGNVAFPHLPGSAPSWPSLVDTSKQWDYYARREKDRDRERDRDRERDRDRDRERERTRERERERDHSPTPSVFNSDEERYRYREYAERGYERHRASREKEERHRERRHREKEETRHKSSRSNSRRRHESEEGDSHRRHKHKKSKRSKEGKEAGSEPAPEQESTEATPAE

Columns and labels:
Assay in all cases: log2 fold change, soluble protein after heating vs DMSO (PISA); higher = thermal stabilisation; K562 lysate, 10 uM; active = over 0.2 and 3.5 SD of the protein, either way, in both replicates (recomputed)
lapatinib = compound: CS(=O)(=O)CCNCc1ccc(-c2ccc3ncnc(Nc4ccc(OCc5cccc(F)c5)c(Cl)c4)c3c2)o1 [lapatinib]
Outline: (§1)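 Dounce homogenisation of K562 pellets in PBS pH 7.4 with 1 mM MgCl2 produced a crude extract, used at 1 mg/mL protein. Exposure to 10 μM compound lasted 30 min, and aliquots were then heated for 3 min across 48°C-58°C, pooled and brought to 0.5% NP-40 at 4°C. The supernatant after 21,000xg for 90 min was quantified by TMTpro 16plex LC-MS/MS with channel sums equalised. Duplicate values are given as log-two fold change in thermal stability relative to solvent controls.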

pictilisib = compound: CS(=O)(=O)N1CCN(Cc2cc3nc(-c4cccc5[nH]ncc45)nc(N4CCOCC4)c3s2)CC1 [pictilisib]
Outline: as §1

crizotinib = compound: C[C@@H](Oc1cc(-c2cnn(C3CCNCC3)c2)cnc1N)c1c(Cl)ccc(F)c1Cl [crizotinib]
Outline: as §1

[1] = compound: C[C@H](C1=CC=C(C=C1)C(=O)NC2=C3C=CNC3=NC=C2)N
Outline: as §1

duvelisib = compound: C[C@H](Nc1ncnc2nc[nH]c12)c1cc2cccc(Cl)c2c(=O)n1-c1ccccc1 [duvelisib]
Outline: as §1

gandotinib = compound: Cc1cc(Nc2cc(CN3CCOCC3)c3nc(C)c(Cc4ccc(Cl)cc4F)n3n2)n[nH]1 [gandotinib]
Outline: as §1

tozasertib = compound: Cc1cc(Nc2cc(N3CCN(C)CC3)nc(Sc3ccc(NC(=O)C4CC4)cc3)n2)n[nH]1 [tozasertib]
Outline: as §1

doramapimod = compound: Cc1ccc(-n2nc(C(C)(C)C)cc2NC(=O)Nc2ccc(OCCN3CCOCC3)c3ccccc23)cc1 [doramapimod]
Outline: as §1

bafetinib = compound: Cc1ccc(NC(=O)c2ccc(CN3CC[C@H](N(C)C)C3)c(C(F)(F)F)c2)cc1Nc1nccc(-c2cncnc2)n1 [bafetinib]
Outline: as §1

[2] = compound: Cc1cccc(CC(=O)N2CCc3c2ccc(-c2cn(C)c4ncnc(N)c24)c3F)n1
Outline: as §1

nilotinib = compound: Cc1cn(-c2cc(NC(=O)c3ccc(C)c(Nc4nccc(-c5cccnc5)n4)c3)cc(C(F)(F)F)c2)cn1 [nilotinib]
Outline: as §1

[3] = compound: Cc1nc(Nc2n[nH]c3c2CN(C(=O)N[C@H](CN(C)C)c2ccccc2)C3(C)C)c2sccc2n1
Outline: as §1

dasatinib = compound: Cc1nc(Nc2ncc(C(=O)Nc3c(C)cccc3Cl)s2)cc(N2CCN(CCO)CC2)n1 [dasatinib]
Outline: as §1

[4] = compound: Cc1ncc(-c2ccnc(Nc3ccc(S(C)(=O)=O)cc3)n2)n1C(C)C
Outline: as §1

[5] = compound: Cn1cc(-c2ccc3c(c2)CCN3C(=O)Cc2cccc(C(F)(F)F)c2)c2c(N)ncnc21
Outline: as §1

quisinostat = compound: Cn1cc(CNCC2CCN(c3ncc(C(=O)NO)cn3)CC2)c2ccccc21 [quisinostat]
Outline: as §1

tipifarnib = compound: Cn1cncc1[C@@](N)(c1ccc(Cl)cc1)c1ccc2c(c1)c(-c1cccc(Cl)c1)cc(=O)n2C [tipifarnib]
Outline: as §1

[6] = compound: NC(=O)Nc1cc(-c2cccc(F)c2)sc1C(=O)N[C@H]1CCCNC1
Outline: as §1

[7] = compound: NC(=O)c1cnc(N[C@@H]2CCCC[C@@H]2N)nc1Nc1cccc(-n2nccn2)c1
Outline: as §1

[8] = compound: NC1(c2ccc(-c3nc4ccn5c(=O)[nH]nc5c4cc3-c3ccccc3)cc2)CCC1
Outline: as §1

Target	log2 fold change (lapatinib)	log2 fold change (pictilisib)	log2 fold change (crizotinib)	log2 fold change [1]	log2 fold change (duvelisib)	log2 fold change (gandotinib)	log2 fold change (tozasertib)	log2 fold change (doramapimod)	log2 fold change (bafetinib)	log2 fold change [2]	log2 fold change (nilotinib)	log2 fold change [3]	log2 fold change (dasatinib)	log2 fold change [4]	log2 fold change [5]	log2 fold change (quisinostat)	log2 fold change (tipifarnib)	log2 fold change [6]	log2 fold change [7]	log2 fold change [8]
FNIP1 isoform 3 (UniProt Q8TF40)	inactive: 0.007	inactive: -0.122	inactive: -0.052	inactive: -0.006	inactive: -0.018	inactive: -0.047	inactive: -0.027	inactive: 0.027	inactive: 0.002	inactive: 0.06	inactive: -0.021	inactive: -0.022	inactive: 0.009	inactive: -0.082	inactive: -0.063	inactive: 0.024	inactive: 0.007	inactive: 0.02	inactive: -0.021	inactive: 0.028
FKBP5 (UniProt Q13451)	inactive: -0.023	inactive: 0.005	inactive: -0.008	inactive: 0.01	inactive: 0.014	inactive: -0.053	inactive: -0.001	inactive: 0.017	inactive: -0.028	inactive: 0	inactive: -0.039	inactive: 0.002	inactive: -0.039	inactive: -0.013	inactive: 0.004	inactive: -0.043	inactive: 0.003	inactive: 0.021	inactive: 0.011	inactive: 0.025
FKBP3 (UniProt Q00688)	inactive: -0.016	inactive: -0.005	inactive: 0.022	inactive: -0.011	inactive: -0.001	inactive: 0.054	inactive: 0.005	inactive: -0.068	inactive: 0.004	inactive: -0.02	inactive: -0.002	inactive: 0.005	inactive: 0.018	inactive: 0.037	inactive: -0.028	inactive: -0.007	inactive: 0.012	inactive: 0.015	inactive: -0.013	inactive: 0.012
FEZ2 isoform 2 (UniProt Q9UHY8)	inactive: -0.032	inactive: -0.02	inactive: -0.039	inactive: 0.089	inactive: -0.005	inactive: -0.002	inactive: -0.003	inactive: 0.022	inactive: 0.056	inactive: -0.018	inactive: 0.002	inactive: 0.005	inactive: -0.007	inactive: 0.02	inactive: 0.009	inactive: -0.05	inactive: -0.013	inactive: 0.02	inactive: 0.029	inactive: -0.023
FBXO42 (UniProt Q6P3S6)	inactive: 0.031	inactive: -0.088	inactive: 0.014	inactive: -0.097	inactive: -0.087	inactive: 0.069	inactive: -0.004	inactive: -0.021	inactive: -0.009	inactive: 0.072	inactive: -0.039	inactive: 0.072	inactive: 0.017	inactive: -0.046	inactive: 0.048	inactive: 0.047	inactive: -0.005	inactive: -0.028	inactive: -0.039	inactive: -0.009
FN3K (UniProt Q9H479)	inactive: -0.007	inactive: 0.004	inactive: 0.03	inactive: 0.072	inactive: -0.006	inactive: -0.035	inactive: -0.017	inactive: -0.037	inactive: 0.027	inactive: -0.059	inactive: 0.016	inactive: -0.019	inactive: 0.01	inactive: -0.02	inactive: -0.017	inactive: -0.06	inactive: 0.008	inactive: 0.004	inactive: 0.005	inactive: -0.015
FN1 (UniProt P02751)	inactive: 0.001	inactive: -0.059	inactive: -0.029	inactive: -0.01	inactive: 0.036	inactive: -0.006	inactive: -0.098	inactive: 0.007	inactive: -0.036	inactive: 0.098	inactive: 0.014	inactive: 0.036	inactive: 0.034	inactive: 0.026	inactive: -0.008	inactive: -0.018	inactive: -0.041	inactive: 0	inactive: -0.023	inactive: 0.01
FLVCR1 (UniProt Q9Y5Y0)	inactive: 0.015	inactive: 0.001	inactive: -0.016	inactive: -0.046	inactive: 0.052	inactive: -0.117	inactive: 0.068	inactive: -0.029	inactive: -0.006	inactive: 0.04	inactive: -0.085	inactive: 0.003	inactive: 0.279	inactive: 0.092	inactive: 0.062	inactive: -0.067	inactive: 0.027	inactive: 0.068	inactive: -0.025	inactive: 0.001
FBXO4 (UniProt Q9UKT5)	inactive: -0.003	inactive: -0.031	inactive: -0.089	inactive: -0.035	inactive: -0.019	inactive: 0.019	inactive: 0.034	inactive: 0.024	inactive: -0.055	inactive: 0.026	inactive: 0.011	inactive: 0.019	inactive: -0.049	inactive: -0.001	inactive: 0.004	inactive: 0	inactive: 0.004	inactive: -0.002	inactive: 0.023	inactive: 0.036
FIBP (UniProt O43427)	inactive: -0.016	inactive: -0.074	inactive: -0.08	inactive: 0.003	inactive: 0.073	inactive: -0.031	inactive: 0.05	inactive: -0.038	inactive: -0.025	inactive: 0.094	inactive: -0.001	inactive: 0.036	inactive: 0.013	inactive: -0.024	inactive: -0.043	inactive: 0.019	inactive: -0.037	inactive: 0.024	inactive: 0	inactive: 0
FBLL1 (UniProt A6NHQ2)	inactive: 0.014	inactive: -0.076	inactive: -0.041	active: -0.277	inactive: 0.059	inactive: 0.028	inactive: 0.047	inactive: -0.013	inactive: -0.075	inactive: 0.053	inactive: 0.006	inactive: -0.015	inactive: -0.048	inactive: -0.101	inactive: 0	inactive: -0.07	inactive: -0.009	inactive: 0.026	inactive: -0.037	inactive: 0
FDX1 (UniProt P10109)	inactive: 0.047	inactive: 0.016	inactive: -0.001	inactive: 0.014	inactive: -0.045	inactive: 0.027	inactive: -0.01	inactive: 0.036	inactive: -0.051	inactive: 0.046	inactive: -0.043	inactive: -0.043	inactive: 0.044	inactive: -0.032	inactive: 0.043	inactive: 0.03	inactive: 0.003	inactive: -0.03	inactive: 0.009	inactive: 0.076
FIG4 (UniProt Q92562)	inactive: -0.065	inactive: 0.12	inactive: -0.016	inactive: 0.039	inactive: -0.023	inactive: -0.099	inactive: -0.112	inactive: -0.067	inactive: -0.09	inactive: 0.058	inactive: -0.02	inactive: 0.144	inactive: -0.007	inactive: 0.08	inactive: 0.145	inactive: 0.077	inactive: -0.038	inactive: 0.013	inactive: -0.066	inactive: 0.06
FBXO6 (UniProt Q9NRD1)	inactive: -0.002	inactive: -0.024	inactive: 0.028	inactive: 0.019	inactive: -0.012	inactive: -0.043	inactive: -0.035	inactive: 0.001	inactive: -0.008	inactive: -0.01	inactive: 0.032	inactive: 0.008	inactive: 0.051	inactive: 0.021	inactive: -0.022	inactive: 0.041	inactive: -0.006	inactive: 0.014	inactive: -0.044	inactive: 0.016
FIP1L1 (UniProt Q6UN15)	inactive: 0.011	inactive: -0.01	inactive: 0.06	inactive: 0.036	inactive: -0.043	inactive: -0.034	inactive: 0.001	inactive: 0.024	inactive: 0.016	inactive: 0.011	inactive: -0.019	inactive: -0.004	inactive: -0.022	inactive: 0.014	inactive: -0.015	inactive: 0.02	inactive: -0.057	inactive: 0.002	inactive: 0.009	inactive: 0.029
FDXR isoform 7 (UniProt P22570)	inactive: 0.016	inactive: -0.034	inactive: -0.024	inactive: -0.036	inactive: -0.003	inactive: 0.04	inactive: -0.008	inactive: 0.049	inactive: -0.055	inactive: -0.016	inactive: -0.001	inactive: -0.012	inactive: -0.026	inactive: -0.027	inactive: 0.035	inactive: 0.007	inactive: 0.038	inactive: 0.028	inactive: 0.002	inactive: -0.044

A few values from above:
In log2 fold change (tipifarnib), FIG4 (UniProt Q92562) is entered as inactive: -0.038
In log2 fold change (pictilisib), FBLL1 (UniProt A6NHQ2) is entered as inactive: -0.076
